Patent publication US20220227887A1 (ONO PHARMACEUTICAL, published 2022)
These are yes or no findings as the source states them, for the method shown. Some entries that bind do so weakly or less than the wild type.

Protein sequences, listed by entry. Tags and fused reporters are not part of them. Lines headed by an entry give the natural chain unless they say otherwise; changes in a name come on top.
UniProt P22646: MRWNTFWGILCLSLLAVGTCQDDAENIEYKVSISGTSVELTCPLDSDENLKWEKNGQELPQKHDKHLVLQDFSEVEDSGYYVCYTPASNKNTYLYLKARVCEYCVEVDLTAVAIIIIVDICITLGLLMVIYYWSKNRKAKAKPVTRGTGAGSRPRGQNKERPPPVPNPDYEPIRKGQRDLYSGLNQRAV

Target: mouse CD3 epsilon on DO11.10 cells (mouse) (UniProt P22646)
Test: cell staining with culture supernatant, DO11.10 cells

binding: binds
B1: bispecific molecule TKB58x2C11 (bispecific antibody)
chain: DAAQPARVQLQQSGAELVRPGALVKLSCKASGFNIKDYYMHWVKQRPEQGLEWIGWIDPENGNTIYDPKFQDKASLTADTSSNTAYLQLSSLTSEDTAVYYCAPERGYDYAMDYWGQGTSVTVSSGGGGSDIQMTQSPSSLPASLGDRVTINCQASQDISNYLNWYQQKPGKAPKLLIYYTNKLADGVPSRFSGSGSGRDSSFTISSLESEDIGSYYCQQYYNYPWTFGPGTKLEIKGGGGSGGGGSGGGGSEVQLVESGGGLVQPGKSLKLSCEASGFTFSGYGMHWVRQAPGRGLESVAYITSSSINIKYADAVKGRFTVSRDNAKNLLFLQMNILKSEDTAMYYCARFDWDKNYWGQGTMVTVSSGGGGSIVLTQSPATLSVTPGDSVSLSCRASQSISNNLHWYQQKSHESPRLLIKYASQSISGIPSRFSGSGSGTDFTLSINSVETEDFGMYFCQQSNSWPQYTFGGGTKLEIKGGGGSDYKDDDDKNSAVDHHHHHH
